Some entries share one result that the patent states for a list of compounds.
Molecular target: T1, hiNOS (Homo sapiens, UniProt P35228)
T1 construct: expressed in transfected cells; host or cells: HEK293
Experiment: DAN assay, hiNOS expressed in transiently transfected HEK293 cells
Assay type: cell-based
Details: general statement, the following assays
Text: The source of nitric oxide synthase (NOS) enzyme can be generated in several ways including induction of endogenous iNOS using cytokines and/or lipopolysaccharide (LPS) in various cell types known in the art. Alternatively, the gene encoding the enzyme can be cloned and the enzyme can be generated in cells via heterologous expression from a transient or stable expression plasmid with suitable features for protein expression as are known in the art. Enzymatic activity (nitric oxide production) is calcium independent for iNOS, while the constitutive NOS isoforms, nNOS and eNOS, become active with the addition of various cofactors added to cellular media or extract as are well known in the art. […]
The level of nitrate or nitrite in the specimen can be quantified by any method known in the art which provides adequate sensitivity and reproducibility. A variety of protocols have also been described for detecting and quantifying nitrite and nitrate levels in biological fluids by ion chromatography (e.g., S A Everett et al., J. Chromatogr. 706, 437 (1995); J M Monaghan et al., J. Chromatogr. 770, 143 (1997)), high-performance liquid chromatography (e.g., M Kelm et al., Cardiovasc. Res. 41, 765 (1999)), and capillary electrophoresis (M A Friedberg et al., J. Chromatogr. 781, 491 (1997)). […]

Row | SMILES | activity as NO synthase inhibitors
1 | CN(CCCNCc1ccc2c(c1)OCO2)c1nc(-n2ccnc2)ns1 [Example 2, N′-Benzo[1,3]dioxol-5-ylmethyl-N-(3-imidazol-1-yl-[1,2,4]thiadiazol-5-yl)-N-methyl-propane-1,3-diamine] | has been shown
2 | CN(CC(=O)NCCc1ccc2c(c1)OCO2)c1nc(-n2ccnc2)ns1 [Example 30, N-(2-Benzo[1,3]dioxol-5-yl-ethyl)-2-[(3-imidazol-1-yl-[1,2,4]thiadiamol-5-yl)-methyl-amino]-acetamide] | has been shown

Reference: patent publication US7825256B2, “Inducible nitric oxide synthase dimerization inhibitors” (Kalypsys, Inc., priority 2004, dated 2010)
